Some of the results follow.
Tests used:
Assay in all cases: log2 fold change, soluble protein after heating vs DMSO (PISA); higher = thermal stabilisation; K562 cells, 10 uM, 30 min; active = over 0.2 and 3.5 SD of the protein, either way, in both replicates (recomputed)
[1] = compound: CC[C@@H]1C(=O)N(C)c2cnc(Nc3ccc(C(=O)NC4CCN(C)CC4)cc3OC)nc2N1C1CCCC1
Summary of the method: (§1)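 Soluble protein was quantified by TMTpro 16plex LC-MS/MS after channel sums were equalised. It was obtained as the supernatant after 21,000xg for 90 min from pooled aliquots of K562 cells (2×10^6 cells/mL, 10 μM compound, 30 min) heated for 3 min across 48°C-58°C and extracted in PBS with 0.5% NP-40 at 4°C. Thermal stability values are relative to control samples and come from duplicates. They are given as log2 fold changes.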

Protein sequences, listed by entry. Tags and fused reporters are not part of them. Lines headed by an entry give the natural chain unless they say otherwise; changes in a name come on top.
UniProt Q2TAA5: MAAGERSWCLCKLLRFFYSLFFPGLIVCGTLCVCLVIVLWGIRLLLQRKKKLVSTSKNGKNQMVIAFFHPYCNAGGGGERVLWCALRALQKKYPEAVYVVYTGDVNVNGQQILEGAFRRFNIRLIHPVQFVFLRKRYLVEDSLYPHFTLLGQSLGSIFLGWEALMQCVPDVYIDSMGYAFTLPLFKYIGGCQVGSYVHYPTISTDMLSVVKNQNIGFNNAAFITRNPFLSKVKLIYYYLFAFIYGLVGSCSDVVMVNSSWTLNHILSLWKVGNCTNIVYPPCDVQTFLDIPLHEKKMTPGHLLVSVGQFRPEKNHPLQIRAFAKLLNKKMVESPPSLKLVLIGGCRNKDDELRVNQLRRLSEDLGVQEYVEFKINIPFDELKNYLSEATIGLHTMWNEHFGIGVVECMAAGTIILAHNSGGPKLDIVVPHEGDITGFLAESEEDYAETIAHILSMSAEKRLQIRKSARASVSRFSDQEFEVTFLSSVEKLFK
UniProt P55263: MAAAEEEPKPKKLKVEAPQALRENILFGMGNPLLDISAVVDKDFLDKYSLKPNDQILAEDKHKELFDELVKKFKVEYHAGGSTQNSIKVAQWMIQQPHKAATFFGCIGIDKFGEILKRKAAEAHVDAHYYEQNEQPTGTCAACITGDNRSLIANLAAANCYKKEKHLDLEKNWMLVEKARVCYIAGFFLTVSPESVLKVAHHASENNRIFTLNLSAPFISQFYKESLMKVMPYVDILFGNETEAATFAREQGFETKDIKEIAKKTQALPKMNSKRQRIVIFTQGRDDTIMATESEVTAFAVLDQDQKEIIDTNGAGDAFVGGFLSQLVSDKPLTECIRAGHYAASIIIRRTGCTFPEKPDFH
UniProt O43823: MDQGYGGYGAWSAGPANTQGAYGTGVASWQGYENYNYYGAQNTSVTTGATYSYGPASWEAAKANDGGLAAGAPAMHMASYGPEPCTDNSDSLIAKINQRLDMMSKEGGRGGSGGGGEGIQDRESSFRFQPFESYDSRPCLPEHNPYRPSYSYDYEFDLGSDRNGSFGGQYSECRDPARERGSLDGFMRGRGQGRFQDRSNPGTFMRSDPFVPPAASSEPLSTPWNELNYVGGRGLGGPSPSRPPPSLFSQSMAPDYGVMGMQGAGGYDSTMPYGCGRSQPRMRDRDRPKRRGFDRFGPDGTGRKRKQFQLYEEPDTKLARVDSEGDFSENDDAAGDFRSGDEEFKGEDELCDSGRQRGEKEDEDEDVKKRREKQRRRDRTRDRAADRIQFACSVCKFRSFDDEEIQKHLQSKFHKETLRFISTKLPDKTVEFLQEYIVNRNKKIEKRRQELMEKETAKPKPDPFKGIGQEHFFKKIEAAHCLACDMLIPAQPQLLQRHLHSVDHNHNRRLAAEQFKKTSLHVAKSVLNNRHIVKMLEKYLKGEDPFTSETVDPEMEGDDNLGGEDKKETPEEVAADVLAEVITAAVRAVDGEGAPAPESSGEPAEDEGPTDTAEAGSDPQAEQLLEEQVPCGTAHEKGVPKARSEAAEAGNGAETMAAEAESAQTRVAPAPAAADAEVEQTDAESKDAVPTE
UniProt Q9Y3D8, whole entry, looked up: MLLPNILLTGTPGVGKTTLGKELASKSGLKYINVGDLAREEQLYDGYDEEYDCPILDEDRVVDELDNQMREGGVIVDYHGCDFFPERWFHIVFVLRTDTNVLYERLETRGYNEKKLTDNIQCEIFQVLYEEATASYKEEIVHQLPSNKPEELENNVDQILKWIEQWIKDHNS
UniProt Q99996, whole entry, looked up: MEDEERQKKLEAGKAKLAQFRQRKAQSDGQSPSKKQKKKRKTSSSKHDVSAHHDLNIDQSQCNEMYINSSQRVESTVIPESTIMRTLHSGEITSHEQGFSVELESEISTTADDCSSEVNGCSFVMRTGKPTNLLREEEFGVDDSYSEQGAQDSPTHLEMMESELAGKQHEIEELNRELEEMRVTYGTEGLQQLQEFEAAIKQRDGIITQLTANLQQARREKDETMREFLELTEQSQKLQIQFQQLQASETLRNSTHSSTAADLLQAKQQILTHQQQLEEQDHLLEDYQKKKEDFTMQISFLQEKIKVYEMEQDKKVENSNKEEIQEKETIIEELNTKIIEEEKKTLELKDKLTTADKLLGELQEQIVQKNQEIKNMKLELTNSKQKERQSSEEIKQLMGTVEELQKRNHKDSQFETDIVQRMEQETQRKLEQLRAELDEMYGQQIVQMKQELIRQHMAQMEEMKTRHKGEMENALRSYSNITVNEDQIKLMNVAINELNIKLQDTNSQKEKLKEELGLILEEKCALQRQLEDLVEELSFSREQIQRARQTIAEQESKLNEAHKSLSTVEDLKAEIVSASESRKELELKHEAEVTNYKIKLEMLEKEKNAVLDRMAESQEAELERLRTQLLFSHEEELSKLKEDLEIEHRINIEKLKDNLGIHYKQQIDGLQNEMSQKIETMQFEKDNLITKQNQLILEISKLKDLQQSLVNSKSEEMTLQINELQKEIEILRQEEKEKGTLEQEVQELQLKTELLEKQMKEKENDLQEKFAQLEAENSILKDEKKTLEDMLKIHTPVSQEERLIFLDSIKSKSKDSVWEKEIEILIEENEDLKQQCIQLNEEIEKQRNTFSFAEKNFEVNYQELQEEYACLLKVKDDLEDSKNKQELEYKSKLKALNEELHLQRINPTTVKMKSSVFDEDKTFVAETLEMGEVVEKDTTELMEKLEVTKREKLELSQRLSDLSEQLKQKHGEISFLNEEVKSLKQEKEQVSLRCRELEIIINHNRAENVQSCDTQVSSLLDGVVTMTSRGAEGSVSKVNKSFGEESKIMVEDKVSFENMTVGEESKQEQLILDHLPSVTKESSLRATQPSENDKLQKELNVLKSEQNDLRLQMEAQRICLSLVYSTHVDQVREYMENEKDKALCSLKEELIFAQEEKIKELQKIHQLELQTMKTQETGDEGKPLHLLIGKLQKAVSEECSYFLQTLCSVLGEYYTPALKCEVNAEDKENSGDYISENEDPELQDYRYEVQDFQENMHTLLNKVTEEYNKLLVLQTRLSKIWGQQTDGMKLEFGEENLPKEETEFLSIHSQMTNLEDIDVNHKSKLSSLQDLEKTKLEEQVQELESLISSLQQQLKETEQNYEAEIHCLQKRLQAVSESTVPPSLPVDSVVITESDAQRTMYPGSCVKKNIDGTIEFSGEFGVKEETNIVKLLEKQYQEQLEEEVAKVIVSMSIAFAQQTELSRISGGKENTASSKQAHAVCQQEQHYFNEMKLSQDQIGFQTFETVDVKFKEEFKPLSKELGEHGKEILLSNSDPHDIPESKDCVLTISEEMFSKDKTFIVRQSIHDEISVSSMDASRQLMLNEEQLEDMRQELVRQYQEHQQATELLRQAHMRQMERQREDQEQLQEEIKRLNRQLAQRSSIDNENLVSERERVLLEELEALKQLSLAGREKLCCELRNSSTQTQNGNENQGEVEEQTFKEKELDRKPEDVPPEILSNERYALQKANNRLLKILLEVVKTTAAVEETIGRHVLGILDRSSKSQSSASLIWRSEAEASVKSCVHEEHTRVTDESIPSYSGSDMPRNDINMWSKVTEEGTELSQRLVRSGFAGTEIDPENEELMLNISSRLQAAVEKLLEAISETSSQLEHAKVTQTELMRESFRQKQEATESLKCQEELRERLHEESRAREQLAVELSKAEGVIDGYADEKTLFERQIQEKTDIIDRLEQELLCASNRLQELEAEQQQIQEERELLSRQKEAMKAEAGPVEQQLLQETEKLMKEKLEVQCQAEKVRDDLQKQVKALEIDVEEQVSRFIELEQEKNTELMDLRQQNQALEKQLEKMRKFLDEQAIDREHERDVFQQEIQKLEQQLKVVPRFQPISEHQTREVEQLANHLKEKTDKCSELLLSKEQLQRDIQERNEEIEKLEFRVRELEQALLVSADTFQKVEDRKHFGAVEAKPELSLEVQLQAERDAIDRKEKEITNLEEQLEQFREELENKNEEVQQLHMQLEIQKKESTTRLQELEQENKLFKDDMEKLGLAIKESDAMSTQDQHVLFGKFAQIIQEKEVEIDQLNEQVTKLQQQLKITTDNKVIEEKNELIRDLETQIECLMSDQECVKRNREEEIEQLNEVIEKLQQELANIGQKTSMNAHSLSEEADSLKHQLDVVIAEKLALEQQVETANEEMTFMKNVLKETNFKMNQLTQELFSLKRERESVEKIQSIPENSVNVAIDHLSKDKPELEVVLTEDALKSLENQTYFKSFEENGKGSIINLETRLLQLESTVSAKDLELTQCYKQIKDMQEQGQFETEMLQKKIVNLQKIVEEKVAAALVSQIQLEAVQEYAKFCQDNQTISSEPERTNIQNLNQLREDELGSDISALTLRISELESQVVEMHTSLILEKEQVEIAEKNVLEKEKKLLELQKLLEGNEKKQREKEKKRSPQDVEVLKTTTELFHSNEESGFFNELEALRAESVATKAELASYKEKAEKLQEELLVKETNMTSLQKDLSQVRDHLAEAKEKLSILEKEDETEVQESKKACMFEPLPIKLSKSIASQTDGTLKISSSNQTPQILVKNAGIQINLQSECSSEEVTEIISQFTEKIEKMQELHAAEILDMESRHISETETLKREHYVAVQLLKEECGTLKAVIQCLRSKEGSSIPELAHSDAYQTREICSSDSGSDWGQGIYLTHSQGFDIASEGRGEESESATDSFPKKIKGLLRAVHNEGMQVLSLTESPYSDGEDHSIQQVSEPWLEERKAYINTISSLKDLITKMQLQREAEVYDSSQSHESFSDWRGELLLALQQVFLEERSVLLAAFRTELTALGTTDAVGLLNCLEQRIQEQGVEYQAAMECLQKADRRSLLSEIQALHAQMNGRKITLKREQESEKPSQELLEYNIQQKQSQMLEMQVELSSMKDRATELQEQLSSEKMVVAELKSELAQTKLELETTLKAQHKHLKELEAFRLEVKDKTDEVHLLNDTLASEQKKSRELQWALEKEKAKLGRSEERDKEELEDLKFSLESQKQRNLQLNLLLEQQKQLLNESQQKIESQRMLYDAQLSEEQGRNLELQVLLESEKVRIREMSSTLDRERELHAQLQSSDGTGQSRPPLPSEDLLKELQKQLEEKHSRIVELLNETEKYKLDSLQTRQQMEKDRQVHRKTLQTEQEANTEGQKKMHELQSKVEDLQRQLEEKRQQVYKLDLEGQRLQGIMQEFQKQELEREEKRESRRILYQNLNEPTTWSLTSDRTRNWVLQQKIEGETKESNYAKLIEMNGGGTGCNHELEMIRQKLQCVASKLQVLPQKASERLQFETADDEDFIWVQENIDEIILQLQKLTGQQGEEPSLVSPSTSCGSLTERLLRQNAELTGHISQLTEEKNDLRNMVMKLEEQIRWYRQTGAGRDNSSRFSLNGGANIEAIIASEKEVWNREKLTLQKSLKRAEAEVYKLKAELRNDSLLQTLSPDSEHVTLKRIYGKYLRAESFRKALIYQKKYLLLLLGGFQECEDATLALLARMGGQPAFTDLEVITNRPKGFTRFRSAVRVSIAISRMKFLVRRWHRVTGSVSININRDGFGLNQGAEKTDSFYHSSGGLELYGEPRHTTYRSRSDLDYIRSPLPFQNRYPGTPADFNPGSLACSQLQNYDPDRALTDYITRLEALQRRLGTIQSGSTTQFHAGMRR
UniProt P13196: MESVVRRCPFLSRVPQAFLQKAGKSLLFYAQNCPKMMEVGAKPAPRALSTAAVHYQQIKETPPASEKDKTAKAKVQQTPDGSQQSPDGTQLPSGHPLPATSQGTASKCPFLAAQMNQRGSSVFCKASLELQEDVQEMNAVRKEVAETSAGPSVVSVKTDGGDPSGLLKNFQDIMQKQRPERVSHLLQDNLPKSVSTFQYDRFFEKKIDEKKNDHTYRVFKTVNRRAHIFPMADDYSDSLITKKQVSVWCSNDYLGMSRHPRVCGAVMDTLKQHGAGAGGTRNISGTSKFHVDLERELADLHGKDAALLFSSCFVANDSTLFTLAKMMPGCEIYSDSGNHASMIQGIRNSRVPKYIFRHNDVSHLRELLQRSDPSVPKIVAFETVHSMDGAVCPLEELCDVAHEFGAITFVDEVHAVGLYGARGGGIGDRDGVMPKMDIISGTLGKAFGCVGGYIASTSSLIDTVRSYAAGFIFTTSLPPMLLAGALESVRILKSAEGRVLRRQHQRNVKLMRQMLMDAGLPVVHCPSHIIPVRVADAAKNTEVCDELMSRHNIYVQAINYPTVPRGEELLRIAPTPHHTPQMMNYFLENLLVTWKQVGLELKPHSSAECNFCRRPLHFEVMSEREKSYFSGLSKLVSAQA

volasertib = compound: CC[C@@H]1C(=O)N(C)c2cnc(Nc3ccc(C(=O)N[C@H]4CC[C@H](N5CCN(CC6CC6)CC5)CC4)cc3OC)nc2N1C(C)C [volasertib]
Summary of the method: as §1

[2] = compound: CC[C@H](C)N1C=C(C2=C(C=C(C=C21)C3=CN=C(C=C3)N4CCNCC4)C(=O)NCC5=C(C=C(NC5=O)C)C)C
Summary of the method: as §1

epoxomicin = compound: CC[C@H](C)[C@@H](C(=O)N[C@@H]([C@@H](C)O)C(=O)N[C@@H](CC(C)C)C(=O)[C@]1(CO1)C)NC(=O)[C@H]([C@@H](C)CC)N(C)C(=O)C [epoxomicin]
Summary of the method: as §1

[3] = compound: CCn1cc(-c2ccnc3[nH]c(-c4cccc(CN(C)C)c4)cc23)c(-c2ccc(NC(=O)N(C)C)cc2)n1
Summary of the method: as §1

[4] = compound: CN(C)CC(=O)Nc1ccc2[nH]c(=O)c3ccccc3c2c1
Summary of the method: as §1

[5] = compound: CN1C2=C(C3=C1C(=O)N(N=C3)CC4=CC(=CC=C4)N)SC(=C2)S(=O)C
Summary of the method: as §1

[6] = compound: CN1CCC(CNc2ccc3ncc(-c4cccc(OC(F)(F)F)c4)n3n2)CC1
Summary of the method: as §1

saracatinib = compound: CN1CCN(CCOc2cc(OC3CCOCC3)c3c(Nc4c(Cl)ccc5c4OCO5)ncnc3c2)CC1 [saracatinib]
Summary of the method: as §1

sotrastaurin = compound: CN1CCN(c2nc(C3=C(c4c[nH]c5ccccc45)C(=O)NC3=O)c3ccccc3n2)CC1 [sotrastaurin]
Summary of the method: as §1

Tubastatin A = compound: CN1CCc2c(c3ccccc3n2Cc2ccc(C(=O)NO)cc2)C1 [Tubastatin A]
Summary of the method: as §1

[7] = compound: CNC(=O)C1=CC=CC=C1NC2=NC(=NC=C2Cl)NC3=C(C=C(C=C3)N4CCOCC4)OC
Summary of the method: as §1

defactinib = compound: CNC(=O)c1ccc(Nc2ncc(C(F)(F)F)c(NCc3nccnc3N(C)S(C)(=O)=O)n2)cc1 [defactinib]
Summary of the method: as §1

rucaparib = compound: CNCc1ccc(-c2[nH]c3cc(F)cc4c3c2CCNC4=O)cc1 [rucaparib]
Summary of the method: as §1

[8] = compound: CNc1nc(-c2ccc3c(N)n[nH]c3c2)cc(N2C[C@@H](C(=O)NC3CCCCC3)CC[C@H]2C)n1
Summary of the method: as §1

encorafenib = compound: COC(=O)N[C@@H](C)CNc1nccc(-c2cn(C(C)C)nc2-c2cc(Cl)cc(NS(C)(=O)=O)c2F)n1 [encorafenib]
Summary of the method: as §1

[9] = compound: COC(=O)[C@H](CCSC)NC(=O)C1=C(C=C(C=C1)NC[C@H](CS)N)C2=CC=CC=C2
Summary of the method: as §1

alvocidib = compound: CN1CC[C@H](c2c(O)cc(O)c3c(=O)cc(-c4ccccc4Cl)oc23)[C@H](O)C1 [alvocidib]
Summary of the method: as §1

[10] = compound: CCn1c(C(=O)N(C2CC2)C2CC2)cc2c3c(ncn3C)c(Nc3cc(C)n(C)n3)nc21
Summary of the method: as §1

rosiglitazone = compound: CN(CCOC1=CC=C(C=C1)C[C@H]2C(=O)NC(=O)S2)C3=CC=CC=N3 (racemic) [rosiglitazone]
Summary of the method: as §1

Target	log2 fold change [1]	log2 fold change (volasertib)	log2 fold change [2]	log2 fold change (epoxomicin)	log2 fold change [3]	log2 fold change [4]	log2 fold change [5]	log2 fold change [6]	log2 fold change (saracatinib)	log2 fold change (sotrastaurin)	log2 fold change (Tubastatin A)	log2 fold change [7]	log2 fold change (defactinib)	log2 fold change (rucaparib)	log2 fold change [8]	log2 fold change (encorafenib)	log2 fold change [9]	log2 fold change (alvocidib)	log2 fold change [10]	log2 fold change (rosiglitazone)
AGPS (UniProt O00116)	inactive: -0.005	inactive: -0.021	inactive: 0.002	inactive: 0.031	inactive: -0.102	inactive: 0.039	inactive: -0.09	active: -0.212	inactive: -0.01	inactive: 0.018	inactive: -0.011	inactive: 0.032	inactive: -0.039	inactive: -0.017	inactive: 0.047	inactive: 0.009	inactive: -0.042			
ALDH2 (UniProt P05091)	inactive: -0.025	inactive: 0.06	inactive: -0.009	inactive: -0.038	inactive: -0.042	inactive: 0.029	inactive: -0.048	inactive: -0.006	inactive: 0.007	inactive: -0.099	inactive: -0.032	inactive: 0.078	inactive: -0.055	inactive: -0.099	inactive: 0.026	inactive: 0.013	inactive: -0.03			
ALG11 (UniProt Q2TAA5)	inactive: -0.034	inactive: -0.17	inactive: 0.126	inactive: 0.038	inactive: 0.006	inactive: 0.018	inactive: -0.109	inactive: 0.042	inactive: 0.047	inactive: 0.013	inactive: -0.023	inactive: -0.018	inactive: -0.021	inactive: -0.015	inactive: -0.021	inactive: 0.073	inactive: -0.082			
ADK (UniProt P55263)	inactive: 0.338	inactive: 0.359	inactive: -0.095	inactive: -0.011	inactive: -0.026	inactive: -0.018	inactive: -0.085	inactive: 0.184	inactive: 0.158	inactive: 0.26	inactive: -0.007	inactive: 0.119	inactive: 0.055	inactive: -0.021	inactive: -0.017	inactive: -0.044	inactive: 0.002			
AKAP8 (UniProt O43823)	inactive: 0.069	active: -0.268	inactive: -0.017	inactive: 0.003	inactive: 0.026	inactive: -0.03	inactive: 0	inactive: -0.131	inactive: 0.012	inactive: -0.021	inactive: 0.002	inactive: -0.073	inactive: 0.01	inactive: 0.017	inactive: -0.126	inactive: 0.037	inactive: 0.008			
AHCYL1 (UniProt O43865)	inactive: 0.021	inactive: 0.036	inactive: -0.099	inactive: -0.007	inactive: -0.097	inactive: 0.018	inactive: -0.115	inactive: -0.063	inactive: 0.101	inactive: 0.014	inactive: -0.042	inactive: 0.182	inactive: 0.104	inactive: 0.044	inactive: 0.061	inactive: -0.043	inactive: -0.005			
AK6 (UniProt Q9Y3D8)	inactive: -0.304	active: -0.438	inactive: -0.001	inactive: 0.08	inactive: -0.007	inactive: 0.148	inactive: 0.027	inactive: -0.322	inactive: -0.154	inactive: -0.121	inactive: 0.03	inactive: 0.018	inactive: -0.095	inactive: 0.092	inactive: -0.053	inactive: 0.095	inactive: -0.09			
AKAP9 isoform 6 (UniProt Q99996)	inactive: 0.065		inactive: -0.038	inactive: 0.291										inactive: -0.036		inactive: -0.08		inactive: 0.3		
ALAS1 (UniProt P13196)	inactive: 0.131	inactive: 0.006		inactive: 0.006	inactive: 0.034			inactive: -0.04		inactive: 0.116		inactive: 0.105		inactive: -0.087		inactive: 0.047			inactive: -0.136	inactive: 0.028
AKAP11 (UniProt Q9UKA4)	inactive: -0.115				inactive: 0.042			inactive: 0.175		inactive: -0.13				inactive: 0.467		inactive: 0.306		inactive: 0.13		
AMBP (UniProt P02760)	inactive: 0	inactive: 0.072			inactive: -0.024	inactive: 0.001	inactive: 0.242	inactive: 0.262	inactive: 0.463			inactive: 0.262	inactive: -0.15	inactive: -0.205	inactive: 0.186	inactive: -0.036	inactive: 0.212	inactive: 0.097	inactive: -0.225	inactive: -0.01

Two successive records already listed:
Target	log2 fold change [1]	log2 fold change (volasertib)	log2 fold change [2]	log2 fold change (epoxomicin)	log2 fold change [3]	log2 fold change [4]	log2 fold change [5]	log2 fold change [6]	log2 fold change (saracatinib)	log2 fold change (sotrastaurin)	log2 fold change (Tubastatin A)	log2 fold change [7]	log2 fold change (defactinib)	log2 fold change (rucaparib)	log2 fold change [8]	log2 fold change (encorafenib)	log2 fold change [9]	log2 fold change (alvocidib)	log2 fold change [10]	log2 fold change (rosiglitazone)
AK6 (UniProt Q9Y3D8)	inactive: -0.304	active: -0.438	inactive: -0.001	inactive: 0.08	inactive: -0.007	inactive: 0.148	inactive: 0.027	inactive: -0.322	inactive: -0.154	inactive: -0.121	inactive: 0.03	inactive: 0.018	inactive: -0.095	inactive: 0.092	inactive: -0.053	inactive: 0.095	inactive: -0.09			
AKAP9 isoform 6 (UniProt Q99996)	inactive: 0.065		inactive: -0.038	inactive: 0.291										inactive: -0.036		inactive: -0.08		inactive: 0.3		
